Experimental data: PubChem BioAssay AID1259425 (University of Nebraska Medical Center, 2018)
Purpose: 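Compare each knockdown with KSR1 silencing using changes in marker transcripts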 (primary screen). System: HCT116 human colon cancer cells. Knock-down reagent: siRNA pool against human genes, 50 nM siRNA. Measured: 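mRNA of six signature genes measured together by branched-DNA assay after 50 nM siRNA pool, blank removed, divided by geometric mean of two housekeeping genes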. Direction: BNIP3L mRNA: higher = more BNIP3L transcript after knockdown; NDRG1 mRNA: higher = more NDRG1 transcript after knockdown; BNIP3 mRNA: higher = more BNIP3 transcript after knockdown; ALDOC mRNA: higher = more ALDOC transcript after knockdown; ACSL5 mRNA: higher = more ACSL5 transcript after knockdown.
Shown is a random part of about 14,000 reagents. The record does not give: the time to read-out.

| BNIP3L mRNA, set 1 | NDRG1 mRNA, set 1 | BNIP3 mRNA, set 1 | ALDOC mRNA, set 1 | ACSL5 mRNA, set 1 | gene knocked down |
| --- | --- | --- | --- | --- | --- |
| 0.0346 | 0.13 | 0.267 | 0.0166 | 0.0718 | EHMT2 (euchromatic histone lysine methyltransferase 2) |
| 0.154 | 1.05 | 0.291 | 0.0247 | 0.241 | ABCG1 (ATP binding cassette subfamily G member 1) |
| 0.207 | 0.135 | 0.246 | 0.0365 | 0.152 | MTNR1A (melatonin receptor 1A) |
| 0.439 | 0.413 | 0.017 | 0.0139 | 1.08 | B3GNT9 |
| 0.0825 | 0.17 | 0.274 | 0.047 | 0.17 | PWWP3A (PWWP domain containing 3A, DNA repair factor) |
| 0.16 | 0.0897 | 0.202 | 0.0072 | 0.0771 | CDH5 (cadherin 5) |
| 0.0676 | 0.205 | 0.392 | 0.0269 | 0.169 | BCL11B (BCL11 transcription factor B) |
| 0.0752 | 0.068 | 0.354 | 0.0225 | 0.12 | BRCA1 (BRCA1 DNA repair associated) |
| 0.0823 | 0.322 | 0.245 | 0.037 | 0.19 | ADAMTS7 (ADAM metallopeptidase with thrombospondin type 1 motif 7) |
| 0.256 | 0.155 | 0.459 | 0.0209 | 0.229 | IRX4 (iroquois homeobox 4) |
| 0.159 | 0.382 | 0.333 | 0.072 | 0.356 | FERMT3 (FERM domain containing kindlin 3) |
| 0.149 | 0.334 | 0.22 | 0.0269 | 0.235 | IFT122 (intraflagellar transport 122) |
| 0.118 | 0.939 | 0.3 | 0.0477 | 0.508 | UNC79 (unc-79 subunit of NALCN channel complex) |
| 0.0961 | 0.5 | 0.245 | 0.0499 | 0.273 | CDC123 (cell division cycle 123) |
| 0.0819 | 0.07 | 0.274 | 0.0125 | 0.151 | AUTS2 (activator of transcription and developmental regulator AUTS2) |
| 0.116 | 0.103 | 0.269 | 0.0475 | 0.203 | GP6 (glycoprotein VI platelet) |
| 0.117 | 2.37 | 0.48 | 0.05 | 1.08 | ASAH2 (N-acylsphingosine amidohydrolase 2) |
| 0.241 | 0.397 | 0.363 | 0.0566 | 0.315 | OR5V1 (olfactory receptor family 5 subfamily V member 1) |
| 0.0431 | 0.127 | 0.215 | 0.0218 | 0.175 | GORASP2 (golgi reassembly stacking protein 2) |
| 0.103 | 0.15 | 0.198 | 0.00794 | 0.172 | GINS3 (GINS complex subunit 3) |
| 0.0576 | 0.121 | 0.406 | 0.00996 | 0.127 | AP3B1 (adaptor related protein complex 3 subunit beta 1) |
| 0.116 | 0.44 | 0.314 | 0.0179 | 0.107 | ZBTB10 (zinc finger and BTB domain containing 10) |
| 0.0659 | 0.175 | 0.355 | 0.012 | 0.188 | KIR2DS4 |
| 0.263 | 0.263 | 0.164 | 0.029 | 0.413 | TBL1XR1 (TBL1X/Y related 1) |
| 0.0527 | 0.11 | 0.271 | 0.0203 | 0.111 | PPP1CA (protein phosphatase 1 catalytic subunit alpha) |
| 0.245 | 0.554 | 0.381 | 0.017 | 0.234 | DUX5 (double homeobox 5) |
| 0.0804 | 0.0812 | 0.267 | 0.0179 | 0.17 | MRPL3 (mitochondrial ribosomal protein L3) |
| 0.0941 | 0.263 | 0.249 | 0.0294 | 0.103 | FABP6 (fatty acid binding protein 6) |
| 0.12 | 0.357 | 0.323 | 0.0232 | 0.158 | POR (cytochrome p450 oxidoreductase) |
| 0.0782 | 0.0448 | 0.205 | 0.0263 | 0.0577 | LILRB1 (leukocyte immunoglobulin like receptor B1) |
| 0.11 | 0.132 | 0.314 | 0.0642 | 0.21 | EMD (emerin) |
| 0.0811 | 0.0717 | 0.303 | 0.0135 | 0.271 | MPZL1 (myelin protein zero like 1) |
| 0.111 | 0.196 | 0.273 | 0.00656 | 0.0563 | SMCP (sperm mitochondria associated cysteine rich protein) |
| 0.428 | 0.136 | 0.501 | 0.00989 | 0.233 | ZBTB33 (zinc finger and BTB domain containing 33) |
| 0.0924 | 0.0865 | 0.307 | 0.041 | 0.223 | SAMD4B (sterile alpha motif domain containing 4B) |
| 0.0537 | 0.549 | 0.374 | 0.0471 | 0.26 | PREPL (prolyl endopeptidase like) |
| 0.079 | 0.0562 | 0.19 | 0.00879 | 0.131 | DCTN2 (dynactin subunit 2) |
| 0.0735 | 0.117 | 0.203 | 0.0128 | 0.11 | EI24 (EI24 autophagy associated transmembrane protein) |
| 0.283 | 0.584 | 0.353 | 0.0727 | 0.46 | USE1 (unconventional SNARE in the ER 1) |
| 0.201 | 0.119 | 0.288 | 0.00876 | 0.2 | HTATIP2 (HIV-1 Tat interactive protein 2) |
| 0.0385 | 0.0637 | 0.285 | 0.00468 | 0.157 | ABHD5 |
| 0.238 | 0.516 | 0.276 | 0.035 | 0.262 | OXA1L (OXA1L mitochondrial inner membrane insertase) |
| 0.28 | 0.162 | 0.367 | 0.0275 | 0.22 | PAIP2 (poly(A) binding protein interacting protein 2) |
| 0.0747 | 0.0886 | 0.392 | 0.00924 | 0.115 | GTF2A1 (general transcription factor IIA subunit 1) |
| 0.0216 | 0.292 | 0.284 | 0.00241 | 0.15 | CALR (calreticulin) |
| 0.49 | 0.461 | 0.522 | 0.0832 | 0.964 | HSD17B11 (hydroxysteroid 17-beta dehydrogenase 11) |
| 0.136 | 0.323 | 0.303 | 0.042 | 0.219 | NOC4L (nucleolar complex associated 4 homolog) |
| 0.0916 | 0.37 | 0.219 | 0.0141 | 0.138 | SPON2 (spondin 2) |
| 0.158 | 0.464 | 0.528 | 0.0226 | 0.147 | JADE2 (jade family PHD finger 2) |
| 0.0663 | 0.486 | 0.317 | 0.0352 | 0.126 | CYP1A1 (cytochrome P450 family 1 subfamily A member 1) |
| 0.0891 | 0.109 | 0.207 | 0.0172 | 0.16 | KCNH8 (potassium voltage-gated channel subfamily H member 8) |
| 0.0609 | 0.128 | 0.21 | 0.0102 | 0.113 | RREB1 (ras responsive element binding protein 1) |
| 0.0622 | 0.203 | 0.295 | 0.0217 | 0.0993 | ARNT (aryl hydrocarbon receptor nuclear translocator) |
| 0.373 | 0.206 | 0.282 | 0.00987 | 0.193 | POU3F2 (POU class 3 homeobox 2) |
| 0.0585 | 0.199 | 0.297 | 0.0195 | 0.268 | ZNF80 (zinc finger protein 80) |
| 0.221 | 0.291 | 0.415 | 0.0265 | 0.344 | PAK1 (p21 (RAC1) activated kinase 1) |
| 0.076 | 0.133 | 0.412 | 0.0326 | 0.118 | ZIM2 (zinc finger imprinted 2) |
| 0.142 | 0.499 | 0.361 | 0.0204 | 0.303 | DOLPP1 (dolichyldiphosphatase 1) |
| 0.0759 | 0.0939 | 0.34 | 0.0407 | 0.146 | EXOC1 (exocyst complex component 1) |
| 0.0765 | 0.214 | 0.245 | 0.0205 | 0.109 | TUBB3 (tubulin beta 3 class III) |
| 0.0809 | 0.0515 | 0.192 | 0.00824 | 0.2 | DSG1 (desmoglein 1) |
| 0.0668 | 0.414 | 0.37 | 0.0542 | 0.086 | SIRT5 (sirtuin 5) |
| 0.123 | 0.282 | 0.261 | 0.0198 | 0.132 | RASSF7 (Ras association domain family member 7) |
